Results are given in words; binding and its absence hold for the method and conditions named. In cells and extracts the contact can be indirect. Some entries that bind do so weakly or less than the wild type. Sequences can lack the tags named with a protein.

In the experiment the target is T1, C-terminally FLAG-tagged GDNF (UniProt P39905).
T1 sequence (looked up): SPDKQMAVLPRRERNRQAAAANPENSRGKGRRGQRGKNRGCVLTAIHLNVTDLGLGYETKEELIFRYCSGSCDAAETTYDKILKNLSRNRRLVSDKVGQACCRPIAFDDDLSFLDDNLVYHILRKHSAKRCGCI
Kind of experiment: co-immunoprecipitation with protein-A beads from mixed conditioned media, anti-FLAG western blot.

B1: PRO34128-Fc fusion protein (Fc fusion, not shown: a dimerising Fc or GST)
chain: SQTNNCTYLREQCLRDANGCKHAWRVMEDACNDSDPGDPCKMRNSSYCNLSIQYLVESNFQFKECLCTDDFYCTVNKLLGKKCINKSDNVKEDKFKWNLTTRSHHGFKGMWSCLEVAEACVGDVVCNAQLASYLKACSANGNPCDLKQCQAAIRFFYQNIPFNIAQMLAFCDCAQSDIPCQQSKEALHSKTCAVNMVPPPTCLSVIRSCQNDELCRRHYRTFQSKCWQRVTRKCHEDENCISTLSKQDLTCSGSDDCKAAYIDILGTVLQVQCTCRTITQSEESLCKIFQHMLHRKSCFNYPTLSNVKGMALYTRKHANKITLTGFHSPFNGE
Regarding B1, the binding entry was “binds”.
